Results: publication PMC4341027
These are yes or no findings as the source states them, for the method shown. In cells and extracts the contact can be indirect. Some entries that bind do so weakly or less than the wild type.

Chains of the proteins cited; added tags and fusions are not shown.
UniProt P42866: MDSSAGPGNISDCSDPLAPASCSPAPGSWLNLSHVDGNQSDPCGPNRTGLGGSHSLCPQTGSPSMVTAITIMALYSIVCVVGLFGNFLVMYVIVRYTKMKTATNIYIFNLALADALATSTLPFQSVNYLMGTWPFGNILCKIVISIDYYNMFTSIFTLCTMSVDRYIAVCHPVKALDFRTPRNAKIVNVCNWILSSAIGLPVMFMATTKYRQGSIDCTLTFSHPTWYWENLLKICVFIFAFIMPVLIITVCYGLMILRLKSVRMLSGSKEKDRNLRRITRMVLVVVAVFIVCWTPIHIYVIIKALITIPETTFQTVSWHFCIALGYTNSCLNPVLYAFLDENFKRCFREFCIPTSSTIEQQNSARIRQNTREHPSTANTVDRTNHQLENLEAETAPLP
UniProt P32300: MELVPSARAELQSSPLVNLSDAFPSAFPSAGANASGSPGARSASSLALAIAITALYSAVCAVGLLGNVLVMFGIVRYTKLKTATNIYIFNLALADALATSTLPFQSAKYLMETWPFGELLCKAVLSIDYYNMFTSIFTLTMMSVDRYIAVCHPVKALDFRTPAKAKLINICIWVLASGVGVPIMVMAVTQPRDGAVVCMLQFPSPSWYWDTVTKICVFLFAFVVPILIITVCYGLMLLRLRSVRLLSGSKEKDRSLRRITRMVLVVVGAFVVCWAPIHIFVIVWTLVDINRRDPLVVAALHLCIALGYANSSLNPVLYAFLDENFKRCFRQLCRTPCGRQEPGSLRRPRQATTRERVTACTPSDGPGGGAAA

Biological target: mu opioid receptor fused at its C-terminus to the red fluorescent protein mcherry (MOR-mcherry) (mouse) (UniProt P42866)
Assay: co-IP; membrane preparations (500 ug) from hippocampus of double knock-in mice solubilized in Tris-HCl 50 mM pH 7.4, 100 mM NaCl, 10 % CHAPS, protease inhibitors, 1 h at 4 °C; immunoprecipitated with 1 ug rabbit polyclonal anti-mcherry antibodies, G protein Sepharose; Western blot with rabbit polyclonal anti-eGFP antibodies

binding: binds
Substance: delta opioid receptor fused at its C terminus to the enhanced green fluorescent protein (DOR-eGFP) (from UniProt P32300 1-372)
